In the assay the target is Pertussis toxin subunit S4 with His-tag, recombinant (Bordetella pertussis) (UniProt P0A3R5). Description: co-purification by the His-tag on one subunit.

The chains behind the UniProt entries cited, without tags or fusion partners. Residues count along the entry.
UniProt P0A3R5, residues 43-152: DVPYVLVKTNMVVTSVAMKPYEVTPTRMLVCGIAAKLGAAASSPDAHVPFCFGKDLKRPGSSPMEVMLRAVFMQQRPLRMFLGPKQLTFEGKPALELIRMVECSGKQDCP
UniProt P04979, residues 29-227: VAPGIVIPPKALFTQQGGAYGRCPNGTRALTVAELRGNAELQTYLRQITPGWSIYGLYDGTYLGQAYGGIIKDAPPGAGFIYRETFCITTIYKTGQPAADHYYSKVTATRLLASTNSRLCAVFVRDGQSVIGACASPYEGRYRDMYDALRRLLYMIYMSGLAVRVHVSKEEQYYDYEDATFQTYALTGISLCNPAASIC
UniProt P04978, residues 28-226: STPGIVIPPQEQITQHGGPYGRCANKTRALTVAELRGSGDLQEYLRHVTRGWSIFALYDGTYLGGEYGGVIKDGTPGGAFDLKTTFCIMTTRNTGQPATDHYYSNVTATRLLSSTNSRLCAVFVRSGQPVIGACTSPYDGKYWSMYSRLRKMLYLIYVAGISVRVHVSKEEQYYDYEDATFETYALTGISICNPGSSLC

No constants are given. Whether binding was seen depends on the method and setting. Some results given as binding are weak or reduced against the parent protein; the word gives no strength.

Turning to “Pertussis toxin subunit S3, recombinant (from UniProt P04979 29-227)”, the binding entry is listed as “binds”.
The entry for “Pertussis toxin subunit S2, PtxB1 form, recombinant (from UniProt P04978 28-226)” is “binds”.

The record behind these values is PMC4573519.
